Measured values taken from the supplement of paper PMC10689618.
This is one part of the list. Single values are uncertain, as repeats are few or missing.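 Labelled rat cortical synaptosomes were engulfed by primary human fetal astrocytes. Engulfment equaled a red/green ratio, corrected for calcein live-cell signal and normalized to the plate median. Compounds were toxic when calcein dropped over 30%, and reduced phagocytosis when below 70% of the median above 5 µM.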

Tests used:
Human fetal astrocytes [1] = experiment: loss of total cells relative to no-compound high-control median (toxicity); higher = more toxic (fewer cells); conditions: 24 h
Human fetal astrocytes [2] = experiment: synaptosome phagocytosis (pHrodo/calcein intensity ratio) relative to plate median of data wells; higher = more phagocytosis; conditions: 24 h

| SMILES | loss of total cells (Human fetal astrocytes [1]; 1.39 µM) [%] | loss of total cells (Human fetal astrocytes [1]; 2.78 µM) [%] | loss of total cells (Human fetal astrocytes [1]; 5.56 µM) [%] | loss of total cells (Human fetal astrocytes [1]; 11.11 µM) [%] | loss of total cells (Human fetal astrocytes [1]; 22.22 µM) [%] | synaptosome phagocytosis (Human fetal astrocytes [2]; 1.39 µM) [%] | synaptosome phagocytosis (Human fetal astrocytes [2]; 2.78 µM) [%] | synaptosome phagocytosis (Human fetal astrocytes [2]; 5.56 µM) [%] | synaptosome phagocytosis (Human fetal astrocytes [2]; 11.11 µM) [%] | synaptosome phagocytosis (Human fetal astrocytes [2]; 22.22 µM) [%] |
| --- | --- | --- | --- | --- | --- | --- | --- | --- | --- | --- |
| Clc1ccc(COC(Cn2ccnc2)c2ccc(Cl)cc2Cl)c(Cl)c1 (stereo not given) | 13.9 | -3.1 | 0.7 | 100 | 105 | 65.5 | 91.7 | 56.7 | 0 | 0 |
| Oc1cccc(O)c1 | 0.9 | -41.7 | -12.5 | -10.1 | 8.2 | 108 | 108 | 97.3 | 104 | 109 |
| C=C1CCC2C(CC2(C)C)C(=C)CC/C1=N/O (stereo not given) | 9.1 | 9.3 | -35.1 | 46.5 | 3.3 | 124 | 121 | 92.1 | 152 | 94.9 |
| CC[C@H]1OC(=O)[C@H](C)C(=O)[C@H](C)[C@@H](O[C@@H]2O[C@H](C)C[C@H](N(C)C)[C@H]2O)[C@](C)(OC)C[C@@H](C)C(=O)[C@H](C)[C@H]2N(CCCCn3cnc(-c4cccnc4)c3)C(=O)O[C@]12C | -21 | -23 | 11.2 | 44.9 | 7.2 | 96.4 | 105 | 105 | 131 | 126 |
| Cc1cccc(C)c1NC(=O)C1CCCCN1C (stereo not given) | -14.1 | -13.1 | 1.5 | -11.7 | -6.8 | 98.7 | 92.7 | 118 | 128 | 114 |
| Nc1ccc(S(=O)(=O)Nc2ccnn2-c2ccccc2)cc1 [Sulfaphenazole] | 9 | 11.9 | 16.7 | -1.3 | 15.2 | 118 | 137 | 108 | 108 | 148 |
| CC(C)(Sc1cc(C(C)(C)C)c(O)c(C(C)(C)C)c1)Sc1cc(C(C)(C)C)c(O)c(C(C)(C)C)c1 | -15.8 | -13.1 | -3.9 | -20.3 | 14.7 | 107 | 78.8 | 108 | 108 | 103 |
| Nc1ccn([C@@H]2O[C@H](CO)[C@@H](O)[C@@H]2O)c(=O)n1 | -0.3 | -3.7 | 0 | -2 | 45.3 | 128 | 131 | 133 | 98.8 | 97.8 |
| CN(Cc1cc(Br)cc(Br)c1N)C1CCCCC1 | -21.8 | -26.2 | 0 | 22.6 | 12.1 | 95.6 | 116 | 113 | 117 | 80.9 |
| CC1=CC(=O)[C@H]2C(C)(C)CCC[C@]2(C)[C@@]1(O)CCc1ccoc1 | -10.5 | -5.3 | 29.8 | 45.8 | -15.2 | 70.7 | 114 | 110 | 136 | 85.8 |
| CC1=CC(=O)C(C(C)C)=CC1=O | -17.2 | -1.8 | 16.1 | 18.9 | -4.4 | 92.2 | 90.4 | 111 | 128 | 98.9 |
| CC(=O)c1c(O)c(C)c(O)c2c1OC1=CC(=O)C(C(C)=O)C(=O)C12C (stereo not given) | -2.5 | 3.3 | -9.9 | 9.7 | 3.3 | 116 | 107 | 97.5 | 115 | 128 |
| COc1ccc2c(c1)O[C@H]1c3ccc(OC)cc3OC[C@@H]21 | 15.6 | -10 | -15.3 | 38.7 | 4.8 | 124 | 63.1 | 94.8 | 100 | 89.4 |
| C[C@@H]1C/C=C/C=C/C=C/C=C/[C@H](O[C@@H]2O[C@H](C)[C@@H](O)[C@H](N)[C@@H]2O)C[C@@H]2O[C@](O)(C[C@@H](O)C[C@H]3O[C@@H]3/C=C/C(=O)O1)C[C@H](O)[C@H]2C(=O)O | -50 | -30.2 | 0 | -16.7 | 1.6 | 98.5 | 104 | 98.1 | 83.4 | 102 |
| O=C(OCC(O)CO)c1ccccc1Nc1ccnc2cc(Cl)ccc12 (stereo not given) | 25.6 | 14.1 | 15.2 | 9.6 | 18.9 | 105 | 105 | 82.6 | 71.8 | 128 |
| COc1ccc2oc3ccccc3c(=O)c2c1 | 6.9 | 8.3 | 5.8 | -7.9 | 5.3 | 100 | 95.4 | 100 | 129 | 102 |
| C=C1C(=O)O[C@H]2[C@H]1CC/C(C)=C/CC[C@@]1(C)O[C@@H]21 | -20.5 | 11.2 | -7.3 | 19.6 | 11.9 | 97.6 | 85.2 | 84.1 | 108 | 65.7 |
| COc1ccc2c(c1)OC[C@@H](Cc1ccc(OC)c(OC)c1)[C@@H]2O | -9.8 | -4 | 13.2 | 21.6 | 11.1 | 104 | 97.7 | 127 | 135 | 139 |

Part of the list above in another layout.
SMILES	loss of total cells (Human fetal astrocytes [1]; 1.39 µM) [%]	loss of total cells (Human fetal astrocytes [1]; 2.78 µM) [%]	loss of total cells (Human fetal astrocytes [1]; 5.56 µM) [%]	loss of total cells (Human fetal astrocytes [1]; 11.11 µM) [%]	loss of total cells (Human fetal astrocytes [1]; 22.22 µM) [%]	synaptosome phagocytosis (Human fetal astrocytes [2]; 1.39 µM) [%]	synaptosome phagocytosis (Human fetal astrocytes [2]; 2.78 µM) [%]	synaptosome phagocytosis (Human fetal astrocytes [2]; 5.56 µM) [%]	synaptosome phagocytosis (Human fetal astrocytes [2]; 11.11 µM) [%]	synaptosome phagocytosis (Human fetal astrocytes [2]; 22.22 µM) [%]
CC1=CC(=O)C(C(C)C)=CC1=O	-17.2	-1.8	16.1	18.9	-4.4	92.2	90.4	111	128	98.9
C=C1C(=O)O[C@H]2[C@H]1CC/C(C)=C/CC[C@@]1(C)O[C@@H]21	-20.5	11.2	-7.3	19.6	11.9	97.6	85.2	84.1	108	65.7
